Reference: PubChem BioAssay AID330 (DTP/NCI, 2004)
The list is a part of this screen's results and no random one: it gathers tests that were run many times, whatever their T/C, doses with no T/C, and many T/C values between a quarter and a half above the control. Further doses and runs are listed elsewhere. T/C is the treated group as % of the vehicle group. Some doses have a count of surviving animals in place of a T/C: the source holds a T/C of zero for them, seemingly a mark for toxic or unscored doses. Some doses without a T/C left all or most animals alive at the check, yet need not have been tolerated: survival well below the control is almost never listed, so the zero probably covers shortened survival too. Counts of survivors are from the toxicity check (mostly the fifth day) where no day follows; animals may have died later. Schedule codes are those of the source, read here as Q, the interval in days (D) or hours (H), X, the number of doses. Some doses were run more than once; the values are given in rising order. For survival time, this PubChem deposit counts one and a half times the control or more as active, and values a quarter to a half above the control carry no call in these data; other NCI protocols may use other cut-offs. Some T/C values carry the count of animals alive at the toxicity check (mostly the fifth day); where none is given, no animal had died by that day.

Test system: P388 leukemia ip, CD2F1 mice, survival T/C
Test: NCI In Vivo Anticancer Drug Screen. Data for tumor model P388 Leukemia (intraperitoneal) in CD2F1 (CDF1) mice
Details: T/C endpoint: median survival time, higher T/C = longer survival
[1] = dose: 50.0 mg/kg/injection, schedule: Q01DX009 (ip), vehicle: saline with Tween-80
[2] = dose: 100.0 mg/kg/injection, schedule: Q01DX009 (ip), vehicle: saline with Tween-80
[3] = dose: 200.0 mg/kg/injection, schedule: Q01DX009 (ip), vehicle: saline with Tween-80
[4] = dose: 25.0 mg/kg/injection, schedule: Q01DX009 (ip), vehicle: saline with Tween-80
[5] = dose: 200.0 mg/kg/injection, schedule: Q01DX005 (ip), vehicle: saline with Tween-80
[6] = dose: 50.0 mg/kg/injection, schedule: Q01DX009 (ip), vehicle: Klucel (hydroxypropylcellulose) (HPC)
[7] = dose: 100.0 mg/kg/injection, schedule: Q01DX009 (ip), vehicle: Klucel (hydroxypropylcellulose) (HPC)
[8] = dose: 200.0 mg/kg/injection, schedule: Q01DX009 (ip), vehicle: Klucel (hydroxypropylcellulose) (HPC)

Question: Which survivor count (dose: 50.0 mg/kg/injection, schedule: Q01DX009 (ip), vehicle: saline) does the source give for `C#CC[N+]1(C)CCC=C(C(=O)OC)C1` (stereo not drawn) here?
Answer: 6 of 6

Question: What about the survivor count (dose: 100.0 mg/kg/injection, schedule: Q01DX009 (ip), vehicle: saline) of the same molecule?
Answer: 5 of 6

Question: And the survivor count (dose: 200.0 mg/kg/injection, schedule: Q01DX009 (ip), vehicle: saline)?
Answer: 0 of 6

Question: With `Cc1cc(N)c2ccccc2c1O` as the molecule, how does the survivor count [1] read?
Answer: 6 of 6

Question: What about the survivor count [2] of the same molecule?
Answer: 0 of 6

Question: And the survivor count [3]?
Answer: 0 of 6

Question: With `CO[C@H]1/C=C/O[C@@]2(C)Oc3c(C)c(O)c4c(O)c(c(/C=N/N5C(C)CN(Cc6ccccc6)CC5C)c(O)c4c3C2=O)NC(=O)/C(C)=C\C=C\[C@H](C)[C@H](O)[C@@H](C)[C@@H](O)[C@@H](C)[C@H](OC(C)=O)[C@@H]1C` (stereo partly drawn) as the molecule, how does the survivor count (dose: 50.0 mg/kg/injection, schedule: Q01DX009 (ip), vehicle: saline sonified) read?
Answer: 6 of 6

Question: For `COc1cccc2c1C(=O)c1c(O)c3c(c(O)c1C2=O)C[C@@](O)(C(=O)CO)C[C@@H]3OC1CC(N)CC(C)O1` (stereo partly drawn), which T/C (dose: 0.1 mg/kg/injection, schedule: Q01DX009 (ip), vehicle: water) is on record?
Answer: 147 % of control

Question: What about the T/C (dose: 0.78 mg/kg/injection, schedule: Q04DX003 (ip), vehicle: water) of the same molecule?
Answer: 126 % of control

Question: And the T/C (dose: 1.56 mg/kg/injection, schedule: Q04DX003 (ip), vehicle: water)?
Answer: 148 % of control

Question: What about the T/C (dose: 1.8 mg/kg/injection, schedule: Q04DX003 (ip), vehicle: saline) of the same molecule?
Answer: 145 % of control

Question: What about the survivor count (dose: 2.5 mg/kg/injection, schedule: Q01DX009 (ip), vehicle: saline) of the same molecule?
Answer: 8 of 8

Question: And the survivor count (dose: 3.13 mg/kg/injection, schedule: Q01DX009 (ip), vehicle: water)?
Answer: 6 of 6

Question: And the survivor count (dose: 6.25 mg/kg/injection, schedule: Q01DX009 (ip), vehicle: water)?
Answer: 4 of 6

Question: And the T/C (dose: 6.25 mg/kg/injection, schedule: Q04DX003 (ip), vehicle: water)?
Answer: 129 % of control

Question: And the survivor count (dose: 12.5 mg/kg/injection, schedule: Q01DX009 (ip), vehicle: water)?
Answer: 5 of 6

Question: And the survivor count (dose: 25.0 mg/kg/injection, schedule: Q01DX009 (ip), vehicle: water)?
Answer: 0 of 6

Question: Which results are given for `Fc1ccc(OCCC(Cn2ccnc2)c2ccc(Cl)cc2Cl)cc1` (stereo not drawn)?
Answer: survivor count [2]: 2 of 6 and 4 of 6; survivor count [3]: 1 of 6

Question: With `Cc1sc(C)c(CCl)c1CCl` as the molecule, how does the T/C (dose: 16.5 mg/kg/injection, schedule: Q01DX009 (ip), vehicle: saline with Tween-80) read?
Answer: 127 % of control

Question: What about the T/C [4] of the same molecule?
Answer: 127 % of control

Question: With `[Co].c1c[nH]cn1.c1c[nH]cn1.c1c[nH]cn1.c1c[nH]cn1.c1c[nH]cn1.c1c[nH]cn1` as the molecule, how does the survivor count (dose: 100.0 mg/kg/injection, schedule: Q01DX005 (ip), vehicle: saline with Tween-80) read?
Answer: 5 of 6

Question: And the survivor count [5]?
Answer: 0 of 6

Question: For `CCCn1cc2c3c(cccc31)C1C=C(C)CN(C)C1C2` (stereo not drawn), which T/C (dose: 50.0 mg/kg/injection, schedule: Q01DX005 (ip), vehicle: saline with Tween-80) is on record?
Answer: 100 [5 of 6 alive], 104, 109, 128 % of control

Question: What about the survivor count [5] of the same molecule?
Answer: 3 of 6

Question: With `CCOC(=O)C(=CNc1cc(C)c2[nH]c3ccc(Br)cc3c2c1C)C(=O)OCC` as the molecule, how does the survivor count (dose: 60.0 mg/kg/injection, schedule: Q01DX005 (ip), vehicle: saline with Tween-80) read?
Answer: 6 of 6

Question: What about the survivor count (dose: 120.0 mg/kg/injection, schedule: Q01DX005 (ip), vehicle: saline with Tween-80) of the same molecule?
Answer: 6 of 6

Question: `CCN(CC)CCCCNc1ccc(NCCCCN(CC)CC)c2c1C(=O)c1ccccc1C2=O` was tested. Which survivor count (dose: 12.5 mg/kg/injection, schedule: Q01DX009 (ip), vehicle: saline) did it give?
Answer: 5 of 6

Question: And the T/C [4]?
Answer: 128 % of control

Question: And the survivor count (dose: 25.0 mg/kg/injection, schedule: Q01DX009 (ip), vehicle: saline)?
Answer: 6 of 6

Question: What about the T/C [1] of the same molecule?
Answer: 128 % of control

Question: What about the survivor count [2] of the same molecule?
Answer: 0 of 6

Question: What about the survivor count [3] of the same molecule?
Answer: 1 of 6

Question: `CC(C)(C)OC(=O)N1CC(O)CC1C(=O)O` (stereo not drawn) was tested. Which survivor count (dose: 200.0 mg/kg/injection, schedule: Q01DX005 (ip), vehicle: saline) did it give?
Answer: 0 of 5

Question: `O=C(NC1CCCCC1)OCc1c(COC(=O)NC2CCCCC2)c(-c2ccc(Cl)c(Cl)c2)n2c1CCC2` was tested. Which T/C (dose: 25.0 mg/kg/injection, schedule: Q01DX009 (ip), vehicle: Klucel (hydroxypropylcellulose) (HPC)) did it give?
Answer: 142 % of control

Question: What about the T/C [4] of the same molecule?
Answer: 141 % of control

Question: And the T/C [2]?
Answer: 175, 187, 193, 212 % of control

Question: And the survivor count (dose: 400.0 mg/kg/injection, schedule: Q01DX009 (ip), vehicle: saline with Tween-80)?
Answer: 6 of 6

Question: Which survivor count [6] does the source give for `Cc1cc(Cl)ccc1N=Cc1ccc(C=Nc2ccc(Cl)cc2C)cc1` here?
Answer: 6 of 6

Question: And the survivor count [7]?
Answer: 5 of 6

Question: What about the survivor count [8] of the same molecule?
Answer: 6 of 6

Question: With `Cc1cc(N2C(=O)CCSC2=S)ccc1Cl` as the molecule, how does the T/C [6] read?
Answer: 133 % of control

Question: And the T/C [7]?
Answer: 142 % of control [5 of 6 alive]

Question: And the T/C [8]?
Answer: 141 % of control

Question: And the survivor count (dose: 400.0 mg/kg/injection, schedule: Q01DX009 (ip), vehicle: Klucel (hydroxypropylcellulose) (HPC))?
Answer: 4 of 6

Question: For `O=NN(CCCl)C(=O)NCCSSCCNC(=O)N(CCCl)N=O` (tested in a mixture with another compound), which T/C (dose: 3.12 mg/kg/injection, schedule: Q01DX005 (ip), vehicle: Klucel (hydroxypropylcellulose) (HPC)) is on record?
Answer: 125 % of control

Question: And the T/C (dose: 6.25 mg/kg/injection, schedule: Q01DX005 (ip), vehicle: Klucel (hydroxypropylcellulose) (HPC))?
Answer: 128 % of control

Question: What about the survivor count (dose: 100.0 mg/kg/injection, schedule: Q01DX005 (ip), vehicle: Klucel (hydroxypropylcellulose) (HPC)) of the same molecule?
Answer: 4 of 4 and 6 of 6

Question: What about the survivor count (dose: 200.0 mg/kg/injection, schedule: Q01DX005 (ip), vehicle: Klucel (hydroxypropylcellulose) (HPC)) of the same molecule?
Answer: 4 of 6

Question: And the survivor count (dose: 400.0 mg/kg/injection, schedule: Q01DX005 (ip), vehicle: Klucel (hydroxypropylcellulose) (HPC))?
Answer: 0 of 5

Question: Which results are given for `CNC[C@@H](O)c1ccc(O)c(O)c1`?
Answer: survivor count (dose: 6.25 mg/kg/injection, schedule: Q01DX009 (ip), vehicle: suspension in saline): 3 of 6; survivor count (dose: 12.5 mg/kg/injection, schedule: Q01DX009 (ip), vehicle: suspension in saline): 1 of 6; survivor count (dose: 25.0 mg/kg/injection, schedule: Q01DX009 (ip), vehicle: suspension in saline): 0 of 6
